# Measured values taken from the supplement of paper PMC10849652.
# The chains behind the UniProt entries cited, without tags or fusion partners. Where a name states a change or a piece, a line headed by the entry shows the natural chain unless it says otherwise.
# UniProt P13797: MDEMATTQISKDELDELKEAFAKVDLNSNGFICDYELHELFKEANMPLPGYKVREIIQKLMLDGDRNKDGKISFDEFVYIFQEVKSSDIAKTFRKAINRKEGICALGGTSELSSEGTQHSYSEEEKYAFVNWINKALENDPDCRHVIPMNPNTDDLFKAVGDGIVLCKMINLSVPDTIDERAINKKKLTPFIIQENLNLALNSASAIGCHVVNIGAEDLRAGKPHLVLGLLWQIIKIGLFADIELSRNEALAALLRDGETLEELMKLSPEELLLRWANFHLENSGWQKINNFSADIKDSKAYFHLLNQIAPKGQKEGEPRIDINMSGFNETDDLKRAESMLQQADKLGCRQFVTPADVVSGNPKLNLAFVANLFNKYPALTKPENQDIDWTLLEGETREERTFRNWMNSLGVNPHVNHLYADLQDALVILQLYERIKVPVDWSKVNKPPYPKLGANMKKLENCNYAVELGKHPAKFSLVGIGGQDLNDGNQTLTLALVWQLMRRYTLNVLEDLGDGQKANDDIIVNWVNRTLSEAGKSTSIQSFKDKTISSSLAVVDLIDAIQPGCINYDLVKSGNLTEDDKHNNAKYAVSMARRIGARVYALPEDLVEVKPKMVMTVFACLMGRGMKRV
# UniProt P28340: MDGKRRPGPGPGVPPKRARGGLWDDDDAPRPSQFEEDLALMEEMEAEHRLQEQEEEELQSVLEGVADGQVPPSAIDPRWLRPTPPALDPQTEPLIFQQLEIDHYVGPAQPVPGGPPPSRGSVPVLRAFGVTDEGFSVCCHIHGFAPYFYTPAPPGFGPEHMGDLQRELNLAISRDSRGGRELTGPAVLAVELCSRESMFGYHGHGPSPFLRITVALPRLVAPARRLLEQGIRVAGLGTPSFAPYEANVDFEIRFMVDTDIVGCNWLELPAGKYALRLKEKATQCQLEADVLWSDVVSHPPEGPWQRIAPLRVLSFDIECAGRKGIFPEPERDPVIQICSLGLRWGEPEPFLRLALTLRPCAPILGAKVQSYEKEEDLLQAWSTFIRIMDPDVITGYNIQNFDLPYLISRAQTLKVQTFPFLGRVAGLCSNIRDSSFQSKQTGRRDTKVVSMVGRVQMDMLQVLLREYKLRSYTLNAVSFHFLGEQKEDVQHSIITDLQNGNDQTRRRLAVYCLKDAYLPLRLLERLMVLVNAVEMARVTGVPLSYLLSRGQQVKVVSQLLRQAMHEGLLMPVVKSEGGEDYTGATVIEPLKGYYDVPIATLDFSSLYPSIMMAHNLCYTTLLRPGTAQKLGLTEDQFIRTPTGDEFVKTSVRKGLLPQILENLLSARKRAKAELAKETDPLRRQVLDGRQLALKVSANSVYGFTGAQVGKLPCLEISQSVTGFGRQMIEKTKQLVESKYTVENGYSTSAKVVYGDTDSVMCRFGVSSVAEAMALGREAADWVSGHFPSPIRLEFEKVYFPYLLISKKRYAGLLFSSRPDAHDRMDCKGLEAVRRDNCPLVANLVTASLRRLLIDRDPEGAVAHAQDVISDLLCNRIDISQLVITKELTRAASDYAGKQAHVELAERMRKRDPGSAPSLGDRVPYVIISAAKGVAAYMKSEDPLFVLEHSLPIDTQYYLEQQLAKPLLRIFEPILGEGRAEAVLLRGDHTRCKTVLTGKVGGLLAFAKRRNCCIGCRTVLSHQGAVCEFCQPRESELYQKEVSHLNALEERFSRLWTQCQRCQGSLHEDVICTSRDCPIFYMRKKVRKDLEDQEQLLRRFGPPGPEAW
# UniProt Q9NP80: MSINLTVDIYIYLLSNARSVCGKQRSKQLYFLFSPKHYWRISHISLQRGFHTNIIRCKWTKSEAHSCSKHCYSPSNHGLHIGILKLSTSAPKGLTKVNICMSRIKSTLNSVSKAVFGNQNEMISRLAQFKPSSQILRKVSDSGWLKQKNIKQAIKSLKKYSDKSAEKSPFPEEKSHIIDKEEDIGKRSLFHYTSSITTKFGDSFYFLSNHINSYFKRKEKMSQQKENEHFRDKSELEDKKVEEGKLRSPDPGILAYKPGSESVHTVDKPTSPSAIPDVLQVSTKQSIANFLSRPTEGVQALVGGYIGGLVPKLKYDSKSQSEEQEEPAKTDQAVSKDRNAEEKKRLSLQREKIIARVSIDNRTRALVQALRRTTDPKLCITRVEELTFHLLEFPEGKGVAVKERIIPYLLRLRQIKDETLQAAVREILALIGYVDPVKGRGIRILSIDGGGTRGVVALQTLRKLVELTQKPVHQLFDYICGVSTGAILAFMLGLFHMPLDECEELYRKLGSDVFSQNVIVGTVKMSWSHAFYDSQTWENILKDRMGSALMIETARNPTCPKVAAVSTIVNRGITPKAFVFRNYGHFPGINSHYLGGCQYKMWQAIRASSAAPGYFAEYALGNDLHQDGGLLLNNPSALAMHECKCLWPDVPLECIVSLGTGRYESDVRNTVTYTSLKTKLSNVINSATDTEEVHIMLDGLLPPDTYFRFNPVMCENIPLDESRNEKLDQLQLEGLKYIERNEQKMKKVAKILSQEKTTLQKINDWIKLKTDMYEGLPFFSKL
# UniProt Q6P1K2: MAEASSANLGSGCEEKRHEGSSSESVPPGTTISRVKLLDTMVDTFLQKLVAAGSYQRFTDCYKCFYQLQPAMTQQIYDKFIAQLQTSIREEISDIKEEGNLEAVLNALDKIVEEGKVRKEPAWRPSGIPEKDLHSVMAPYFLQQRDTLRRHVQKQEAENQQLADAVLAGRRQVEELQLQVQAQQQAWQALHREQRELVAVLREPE
# UniProt Q15063: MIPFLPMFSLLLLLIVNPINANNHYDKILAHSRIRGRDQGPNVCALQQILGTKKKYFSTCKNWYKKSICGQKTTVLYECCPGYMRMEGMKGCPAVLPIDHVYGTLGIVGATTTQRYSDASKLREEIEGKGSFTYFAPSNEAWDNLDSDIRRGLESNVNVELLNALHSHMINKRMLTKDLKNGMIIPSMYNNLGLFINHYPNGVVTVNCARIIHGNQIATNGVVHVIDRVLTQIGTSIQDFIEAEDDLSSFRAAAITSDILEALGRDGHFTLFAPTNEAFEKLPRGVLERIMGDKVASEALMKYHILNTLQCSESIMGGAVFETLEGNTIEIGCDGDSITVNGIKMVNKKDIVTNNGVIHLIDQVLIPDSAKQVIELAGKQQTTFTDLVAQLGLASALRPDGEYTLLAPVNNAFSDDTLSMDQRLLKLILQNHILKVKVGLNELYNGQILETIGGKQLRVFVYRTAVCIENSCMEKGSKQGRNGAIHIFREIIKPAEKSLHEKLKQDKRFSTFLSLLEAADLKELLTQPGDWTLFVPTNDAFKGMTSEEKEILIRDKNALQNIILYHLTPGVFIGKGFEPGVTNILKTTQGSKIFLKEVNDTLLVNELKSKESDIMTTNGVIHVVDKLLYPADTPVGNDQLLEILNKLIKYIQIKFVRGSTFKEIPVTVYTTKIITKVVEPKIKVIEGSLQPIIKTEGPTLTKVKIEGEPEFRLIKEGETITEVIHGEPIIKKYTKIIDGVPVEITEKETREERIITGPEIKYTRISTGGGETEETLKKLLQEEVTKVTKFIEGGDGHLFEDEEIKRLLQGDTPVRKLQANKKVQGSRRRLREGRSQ
# UniProt Q92871: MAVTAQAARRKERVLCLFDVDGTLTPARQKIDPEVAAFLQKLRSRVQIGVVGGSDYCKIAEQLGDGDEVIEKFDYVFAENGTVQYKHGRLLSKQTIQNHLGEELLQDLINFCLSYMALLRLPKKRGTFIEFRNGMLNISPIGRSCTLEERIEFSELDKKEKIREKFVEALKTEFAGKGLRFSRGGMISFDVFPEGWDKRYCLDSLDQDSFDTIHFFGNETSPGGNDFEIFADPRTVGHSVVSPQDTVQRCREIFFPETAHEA
# UniProt Q9BX97: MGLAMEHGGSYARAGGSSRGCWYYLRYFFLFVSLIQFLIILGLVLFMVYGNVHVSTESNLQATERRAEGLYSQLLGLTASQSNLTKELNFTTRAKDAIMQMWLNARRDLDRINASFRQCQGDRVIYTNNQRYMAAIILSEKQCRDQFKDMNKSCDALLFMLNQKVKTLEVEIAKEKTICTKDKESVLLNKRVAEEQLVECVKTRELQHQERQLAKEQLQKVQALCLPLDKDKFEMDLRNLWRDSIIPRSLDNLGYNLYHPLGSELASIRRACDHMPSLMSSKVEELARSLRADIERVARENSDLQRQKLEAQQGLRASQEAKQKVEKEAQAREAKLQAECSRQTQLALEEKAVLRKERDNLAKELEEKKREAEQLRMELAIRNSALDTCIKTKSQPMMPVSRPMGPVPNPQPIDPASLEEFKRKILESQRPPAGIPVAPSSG
# UniProt O43447: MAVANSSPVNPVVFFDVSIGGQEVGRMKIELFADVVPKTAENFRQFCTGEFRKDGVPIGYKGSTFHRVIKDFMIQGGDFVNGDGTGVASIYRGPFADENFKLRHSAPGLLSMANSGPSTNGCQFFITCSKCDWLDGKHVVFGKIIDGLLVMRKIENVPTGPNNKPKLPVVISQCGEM
# UniProt Q9Y244: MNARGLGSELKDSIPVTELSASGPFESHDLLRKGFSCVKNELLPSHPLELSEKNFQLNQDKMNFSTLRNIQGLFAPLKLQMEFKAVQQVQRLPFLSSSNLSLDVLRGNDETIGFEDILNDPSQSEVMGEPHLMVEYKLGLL
# UniProt O75688: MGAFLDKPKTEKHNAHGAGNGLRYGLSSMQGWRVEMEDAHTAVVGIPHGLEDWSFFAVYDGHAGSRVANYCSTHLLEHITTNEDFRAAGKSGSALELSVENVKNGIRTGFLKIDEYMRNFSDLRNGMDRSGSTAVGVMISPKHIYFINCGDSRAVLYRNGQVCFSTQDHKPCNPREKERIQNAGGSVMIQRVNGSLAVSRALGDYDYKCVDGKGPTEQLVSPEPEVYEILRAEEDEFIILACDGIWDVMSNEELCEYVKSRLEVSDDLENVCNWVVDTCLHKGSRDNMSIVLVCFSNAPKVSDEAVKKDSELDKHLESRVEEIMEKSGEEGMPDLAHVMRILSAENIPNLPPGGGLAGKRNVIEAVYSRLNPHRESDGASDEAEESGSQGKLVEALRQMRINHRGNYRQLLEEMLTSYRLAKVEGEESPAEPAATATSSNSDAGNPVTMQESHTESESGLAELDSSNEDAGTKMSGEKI
# UniProt O14802: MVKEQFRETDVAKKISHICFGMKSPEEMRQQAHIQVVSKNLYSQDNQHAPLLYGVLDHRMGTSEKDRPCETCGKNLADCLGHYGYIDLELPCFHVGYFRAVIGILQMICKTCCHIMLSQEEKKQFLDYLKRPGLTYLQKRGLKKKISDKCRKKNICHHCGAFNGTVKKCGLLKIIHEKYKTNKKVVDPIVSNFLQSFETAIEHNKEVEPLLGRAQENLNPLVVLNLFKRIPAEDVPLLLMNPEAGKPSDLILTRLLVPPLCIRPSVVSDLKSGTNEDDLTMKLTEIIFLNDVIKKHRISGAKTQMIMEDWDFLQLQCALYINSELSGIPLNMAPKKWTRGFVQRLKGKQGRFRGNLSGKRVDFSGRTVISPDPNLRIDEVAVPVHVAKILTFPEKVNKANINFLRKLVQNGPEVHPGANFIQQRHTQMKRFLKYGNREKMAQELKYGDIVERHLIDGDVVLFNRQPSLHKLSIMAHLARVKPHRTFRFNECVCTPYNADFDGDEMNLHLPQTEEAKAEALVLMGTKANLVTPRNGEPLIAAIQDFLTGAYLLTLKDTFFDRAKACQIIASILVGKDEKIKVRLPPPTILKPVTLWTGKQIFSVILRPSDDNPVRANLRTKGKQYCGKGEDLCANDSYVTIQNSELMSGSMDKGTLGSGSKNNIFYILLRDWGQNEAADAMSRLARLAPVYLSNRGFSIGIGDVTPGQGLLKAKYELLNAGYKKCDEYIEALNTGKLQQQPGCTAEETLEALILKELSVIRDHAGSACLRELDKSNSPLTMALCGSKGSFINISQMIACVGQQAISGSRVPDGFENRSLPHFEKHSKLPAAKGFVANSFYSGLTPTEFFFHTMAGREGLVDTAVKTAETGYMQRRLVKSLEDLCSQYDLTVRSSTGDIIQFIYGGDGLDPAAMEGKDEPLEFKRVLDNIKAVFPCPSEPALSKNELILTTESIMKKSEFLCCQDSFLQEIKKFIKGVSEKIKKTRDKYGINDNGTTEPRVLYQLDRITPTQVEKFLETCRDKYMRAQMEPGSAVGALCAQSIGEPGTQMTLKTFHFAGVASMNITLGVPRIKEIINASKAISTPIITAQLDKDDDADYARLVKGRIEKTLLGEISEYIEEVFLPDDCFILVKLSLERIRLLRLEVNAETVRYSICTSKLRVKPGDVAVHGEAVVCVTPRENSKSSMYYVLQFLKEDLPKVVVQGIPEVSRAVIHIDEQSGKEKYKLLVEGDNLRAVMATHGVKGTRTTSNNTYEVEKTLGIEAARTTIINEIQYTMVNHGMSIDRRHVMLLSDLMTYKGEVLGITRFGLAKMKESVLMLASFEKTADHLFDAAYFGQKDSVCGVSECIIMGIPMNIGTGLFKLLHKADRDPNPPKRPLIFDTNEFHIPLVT
# The other results are listed elsewhere or left out.
# Key:
# Assay in all cases: log2 fold change, soluble protein after heating vs DMSO (PISA); higher = thermal stabilisation; K562 cells, 10 uM, 30 min; active = over 0.2 and 3.5 SD of the protein, either way, in both replicates (recomputed)
# bafetinib = compound: Cc1ccc(NC(=O)c2ccc(CN3CC[C@H](N(C)C)C3)c(C(F)(F)F)c2)cc1Nc1nccc(-c2cncnc2)n1 [bafetinib]
# Method in brief: (§1)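 K562 cells (2×10^6 cells/mL) were treated with 10 μM compound for 30 min, and aliquots were heated for 3 min over 48°C-58°C. Pooled aliquots were extracted in PBS with 0.5% NP-40 at 4°C, and the supernatant after 21,000xg for 90 min was measured by TMTpro 16plex LC-MS/MS with channel sums equalised. Reported thermal stability, relative to control samples and from duplicates, is a log2 fold change.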
# [1] = compound: Cc1cccc(CC(=O)N2CCc3c2ccc(-c2cn(C)c4ncnc(N)c24)c3F)n1
# Method in brief: as §1
# nilotinib = compound: Cc1cn(-c2cc(NC(=O)c3ccc(C)c(Nc4nccc(-c5cccnc5)n4)c3)cc(C(F)(F)F)c2)cn1 [nilotinib]
# Method in brief: as §1
# [2] = compound: Cc1nc(Nc2n[nH]c3c2CN(C(=O)N[C@H](CN(C)C)c2ccccc2)C3(C)C)c2sccc2n1
# Method in brief: as §1
# dasatinib = compound: Cc1nc(Nc2ncc(C(=O)Nc3c(C)cccc3Cl)s2)cc(N2CCN(CCO)CC2)n1 [dasatinib]
# Method in brief: as §1
# [3] = compound: Cc1ncc(-c2ccnc(Nc3ccc(S(C)(=O)=O)cc3)n2)n1C(C)C
# Method in brief: as §1
# [4] = compound: Cn1cc(-c2ccc3c(c2)CCN3C(=O)Cc2cccc(C(F)(F)F)c2)c2c(N)ncnc21
# Method in brief: as §1
# [5] = compound: Cn1cc(-c2ccc3nnc(C(F)(F)c4ccc5ncccc5c4)n3n2)cn1
# Method in brief: as §1
# tipifarnib = compound: Cn1cncc1[C@@](N)(c1ccc(Cl)cc1)c1ccc2c(c1)c(-c1cccc(Cl)c1)cc(=O)n2C [tipifarnib]
# Method in brief: as §1
# mubritinib = compound: FC(F)(F)c1ccc(/C=C/c2nc(COc3ccc(CCCCn4ccnn4)cc3)co2)cc1 [mubritinib]
# Method in brief: as §1
# [6] = compound: NC(=O)Nc1cc(-c2cccc(F)c2)sc1C(=O)N[C@H]1CCCNC1
# Method in brief: as §1
# [7] = compound: NC(=O)c1cnc(N[C@@H]2CCCC[C@@H]2N)nc1Nc1cccc(-n2nccn2)c1
# Method in brief: as §1
# [8] = compound: NC1(c2ccc(-c3nc4ccn5c(=O)[nH]nc5c4cc3-c3ccccc3)cc2)CCC1
# Method in brief: as §1
# [9] = compound: NCC(=O)Nc1ccc(-n2nc(C(F)(F)F)cc2-c2ccc3c(ccc4ccccc43)c2)cc1
# Method in brief: as §1
# entinostat = compound: Nc1ccccc1NC(=O)c1ccc(CNC(=O)OCc2cccnc2)cc1 [entinostat]
# Method in brief: as §1
# vorinostat = compound: O=C(CCCCCCC(=O)Nc1ccccc1)NO [vorinostat]
# Method in brief: as §1
# citarinostat = compound: O=C(CCCCCCNC(=O)c1cnc(N(c2ccccc2)c2ccccc2Cl)nc1)NO [citarinostat]
# Method in brief: as §1
# silmitasertib = compound: O=C(O)c1ccc2c(c1)nc(Nc1cccc(Cl)c1)c1ccncc12 [silmitasertib]
# Method in brief: as §1
# [10] = compound: O=C1NC(=O)C(c2cnc3ccccn23)=C1c1cn2c3c(cc(F)cc13)CN(C(=O)N1CCCCC1)CC2
# Method in brief: as §1
# [11] = compound: c1cc(OCCN2CCCCC2)cc(-c2n[nH]c3ccc(-c4nnc[nH]4)cc23)c1
# Method in brief: as §1
Target,log2 fold change (bafetinib),log2 fold change [1],log2 fold change (nilotinib),log2 fold change [2],log2 fold change (dasatinib),log2 fold change [3],log2 fold change [4],log2 fold change [5],log2 fold change (tipifarnib),log2 fold change (mubritinib),log2 fold change [6],log2 fold change [7],log2 fold change [8],log2 fold change [9],log2 fold change (entinostat),log2 fold change (vorinostat),log2 fold change (citarinostat),log2 fold change (silmitasertib),log2 fold change [10],log2 fold change [11]
PLS3 (UniProt P13797),inactive: -0.025,inactive: -0.002,inactive: -0.003,inactive: 0.013,inactive: 0.026,inactive: -0.001,inactive: 0.018,inactive: 0.053,inactive: -0.021,inactive: 0.019,inactive: -0.07,inactive: -0.038,inactive: -0.023,inactive: -0.001,inactive: -0.035,inactive: -0.027,inactive: -0.007,inactive: 0.037,inactive: -0.075,inactive: -0.046
PLXNB2 (UniProt O15031),inactive: -0.019,inactive: 0.005,inactive: 0.001,inactive: -0.048,inactive: -0.046,inactive: -0.018,inactive: 0.063,inactive: -0.036,inactive: -0.028,inactive: 0.072,inactive: -0.124,inactive: -0.007,inactive: -0.09,inactive: 0.06,inactive: -0.039,inactive: 0.138,inactive: 0.006,inactive: 0.004,inactive: -0.068,inactive: -0.049
POLD1 (UniProt P28340),inactive: -0.055,inactive: 0.023,inactive: -0.03,inactive: -0.006,inactive: -0.049,inactive: -0.052,inactive: 0.063,inactive: 0.01,inactive: -0.066,inactive: 0.006,inactive: -0.01,inactive: -0.027,inactive: -0.095,inactive: -0.007,inactive: 0.005,inactive: -0.098,inactive: 0.117,inactive: 0.03,inactive: -0.122,inactive: -0.011
PNPLA8 (UniProt Q9NP80),inactive: -0.04,inactive: -0.13,inactive: 0.036,inactive: -0.026,inactive: -0.055,inactive: 0.038,inactive: 0.036,inactive: -0.063,inactive: 0.053,inactive: 0.095,inactive: -0.035,inactive: 0.007,inactive: -0.038,inactive: -0.038,inactive: -0.031,inactive: 0.111,inactive: 0.049,inactive: -0.036,inactive: -0.017,inactive: -0.052
POLR2K (UniProt P53803),inactive: -0.052,inactive: -0.057,inactive: -0.021,inactive: 0.029,inactive: 0.081,inactive: 0.089,inactive: 0.006,inactive: 0.019,inactive: -0.036,inactive: -0.008,inactive: -0.04,inactive: -0.107,inactive: 0.017,inactive: 0.053,inactive: -0.01,inactive: -0.156,inactive: 0.13,inactive: 0.097,inactive: 0.002,active: -0.474
PMF1 (UniProt Q6P1K2),inactive: -0.059,inactive: -0.086,inactive: 0.14,inactive: -0.046,inactive: -0.083,inactive: 0.124,inactive: 0.056,inactive: 0.038,inactive: -0.043,inactive: 0.077,inactive: -0.163,inactive: -0.015,inactive: -0.072,inactive: 0.047,inactive: 0.141,inactive: 0.049,inactive: 0.076,inactive: 0.048,inactive: -0.029,inactive: 0.072
POSTN (UniProt Q15063),inactive: -0.074,inactive: -0.009,inactive: 0.083,inactive: 0.038,inactive: -0.031,inactive: 0.189,inactive: 0.23,inactive: 0.028,inactive: 0.019,inactive: -0.139,inactive: -0.085,inactive: -0.049,inactive: -0.164,inactive: -0.053,inactive: -0.018,inactive: 0.226,inactive: -0.019,inactive: 0.143,inactive: 0.003,inactive: 0.041
PMM1 (UniProt Q92871),inactive: -0.2,inactive: 0.022,active: -0.606,inactive: -0.152,inactive: -0.027,inactive: 0.003,inactive: 0.05,inactive: 0.025,inactive: 0.134,inactive: 0.066,inactive: 0.005,inactive: 0.006,inactive: -0.01,inactive: 0.002,inactive: -0.021,inactive: 0.113,inactive: 0.034,inactive: -0.005,inactive: 0.004,inactive: -0.012
PLVAP (UniProt Q9BX97),inactive: 0.218,inactive: -0.096,inactive: 0.038,inactive: 0.083,inactive: 0.057,inactive: 0.023,inactive: 0.174,inactive: 0.29,inactive: 0.046,inactive: -0.145,inactive: 0,inactive: 0.111,inactive: -0.142,inactive: -0.022,inactive: -0.068,inactive: 0.13,inactive: 0.032,inactive: 0.145,inactive: 0,inactive: 0.101
PPIH (UniProt O43447),inactive: 0.009,inactive: 0.018,inactive: -0.019,inactive: -0.019,inactive: -0.027,inactive: -0.006,inactive: 0.01,inactive: 0.058,inactive: -0.052,inactive: 0.021,inactive: -0.077,inactive: -0.037,inactive: -0.079,inactive: -0.064,inactive: 0.042,inactive: 0.034,inactive: 0.025,inactive: -0.009,inactive: -0.076,inactive: -0.01
POLR2A (UniProt P24928),inactive: -0.019,inactive: -0.014,inactive: -0.039,inactive: 0.24,inactive: -0.066,active: 0.511,inactive: 0,inactive: -0.037,inactive: 0.004,inactive: 0.038,inactive: -0.057,inactive: 0.121,inactive: -0.049,inactive: -0.094,inactive: 0.049,inactive: -0.067,inactive: -0.062,inactive: 0.086,inactive: 0.059,inactive: -0.05
POLR1C (UniProt O15160),inactive: 0.057,inactive: 0.007,inactive: -0.082,inactive: -0.12,inactive: -0.147,inactive: 0.008,inactive: 0.058,inactive: -0.022,inactive: -0.113,inactive: -0.072,inactive: -0.023,inactive: -0.041,inactive: 0.008,inactive: 0.041,inactive: 0.069,inactive: 0.036,inactive: 0.041,inactive: 0.122,inactive: 0.055,inactive: -0.101
POMP (UniProt Q9Y244),inactive: -0.097,inactive: -0.101,inactive: 0.142,inactive: -0.093,inactive: 0.006,inactive: -0.092,inactive: 0.079,inactive: 0.156,inactive: 0.116,inactive: 0.01,inactive: 0.106,inactive: 0.039,inactive: -0.029,inactive: -0.024,inactive: 0.05,inactive: -0.066,inactive: 0.026,inactive: 0.022,inactive: -0.022,inactive: -0.01
PLIN2 (UniProt Q99541),inactive: -0.326,inactive: 0.037,inactive: 0.184,inactive: 0.03,inactive: -0.219,inactive: 0.04,inactive: -0.016,inactive: 0.047,inactive: -0.105,inactive: 0.027,inactive: 0.019,inactive: -0.194,inactive: -0.353,inactive: -0.059,inactive: 0.077,inactive: 0.203,inactive: 0.027,inactive: 0.035,inactive: -0.046,inactive: -0.044
PPM1B (UniProt O75688),inactive: -0.033,inactive: -0.04,inactive: -0.001,inactive: 0.032,inactive: -0.067,inactive: 0.003,inactive: 0.044,inactive: -0.057,inactive: -0.071,inactive: 0.06,inactive: -0.031,inactive: 0.018,inactive: -0.13,inactive: -0.052,inactive: -0.004,inactive: -0.01,inactive: -0.013,inactive: -0.026,inactive: -0.047,inactive: -0.033
POLR3A (UniProt O14802),inactive: 0.009,inactive: 0.017,inactive: 0.186,inactive: -0.048,inactive: -0.184,inactive: -0.099,inactive: -0.066,inactive: 0.017,inactive: -0.015,inactive: -0.04,inactive: 0.156,inactive: -0.05,inactive: -0.222,inactive: 0,inactive: 0.106,inactive: -0.03,inactive: -0.101,inactive: 0.174,inactive: -0.011,inactive: -0.033
